From US7838231 come the findings set out here.

No constants are given. Whether binding was seen depends on the method and setting. In cells and extracts the contact can be indirect. Some entries that bind do so weakly or less than the wild type.

For assay [1], the target named is T1, endogenous inversin of mouse kidney (mouse) (UniProt O89019).
T1 sequence (looked up): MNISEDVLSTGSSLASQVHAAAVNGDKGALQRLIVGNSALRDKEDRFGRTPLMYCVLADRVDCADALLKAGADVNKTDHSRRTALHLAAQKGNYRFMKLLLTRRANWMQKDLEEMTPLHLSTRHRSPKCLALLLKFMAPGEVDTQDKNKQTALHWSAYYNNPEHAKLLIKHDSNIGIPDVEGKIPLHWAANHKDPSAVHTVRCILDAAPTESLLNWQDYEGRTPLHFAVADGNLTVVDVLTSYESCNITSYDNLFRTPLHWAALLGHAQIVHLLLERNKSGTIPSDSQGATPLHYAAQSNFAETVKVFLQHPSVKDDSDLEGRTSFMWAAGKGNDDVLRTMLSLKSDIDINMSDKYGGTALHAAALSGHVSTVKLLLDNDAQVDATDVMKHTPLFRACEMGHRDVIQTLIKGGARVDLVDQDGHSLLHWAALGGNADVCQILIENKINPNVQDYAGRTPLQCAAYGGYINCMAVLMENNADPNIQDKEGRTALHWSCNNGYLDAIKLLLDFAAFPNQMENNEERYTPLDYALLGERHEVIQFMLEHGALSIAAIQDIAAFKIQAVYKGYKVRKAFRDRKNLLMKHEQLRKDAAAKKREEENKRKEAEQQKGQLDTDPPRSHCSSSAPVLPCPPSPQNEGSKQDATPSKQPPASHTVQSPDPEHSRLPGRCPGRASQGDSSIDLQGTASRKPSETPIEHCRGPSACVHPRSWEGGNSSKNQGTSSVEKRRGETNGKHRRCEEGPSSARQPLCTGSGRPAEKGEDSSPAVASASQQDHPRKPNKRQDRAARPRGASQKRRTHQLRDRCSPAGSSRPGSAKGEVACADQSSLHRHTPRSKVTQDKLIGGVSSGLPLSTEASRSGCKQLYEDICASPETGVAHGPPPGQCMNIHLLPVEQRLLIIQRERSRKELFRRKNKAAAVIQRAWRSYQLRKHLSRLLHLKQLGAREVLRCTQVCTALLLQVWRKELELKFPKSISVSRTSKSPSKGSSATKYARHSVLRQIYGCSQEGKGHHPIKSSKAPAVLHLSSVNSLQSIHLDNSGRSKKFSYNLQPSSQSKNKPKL
The assay can be described thus: co-immunoprecipitation, mouse tissue.

In assay [2] the target is T1, endogenous inversin of mouse kidney (mouse). The assay can be described thus: co-immunoprecipitation of endogenous proteins from mouse kidney lysate with anti-nephrocystin antisera.

B1: endogenous nephrocystin of mouse kidney (protein, UniProt Q9QY53 1-687, looked up)
chain: MLARRPRDPLQALRRRGQELKLQVDSLVTESQLTGALEPSKRREIYQRCIQLKQAVDENKNTLQKLNKADEAAPVGNYEQRKEEEHSLLEKLACQLQELAVSISRKDALKVEAHSDKEEDDTTEDDEEETGGEEEESEGDGEGKQEQASPKQAETETVTYIALGDFAAQQTGDLTFKKGDVLHIIEKKPDGWWLAKDAEGVEGLIPRTYLEPYNKEDKLESSEGSEEGGEEDGEEDVEVVDETADGAQVKQRTDSHWSAVRKAISEQINTVDVLATMGAIPAGFRPSTLSQLLDEAGNQFRASYFLQPELTTSQLAFRDLTWDAKAGTIMSRPSRVSLILTLWSCKMIPLPGTSIQVLSRHIRLCLFDGSKVLSNIHTVRAVWQPKKPKTWTFSPQVTGILPCLLDGDCFIRSNSSTPDLGILFELGISYIRNSTGERGELSCGWVFLKLFDASGVPIPAKTYELFLNGGTPYEKGVEVDPSVSRRAQGSVFRQMISVRRQPQLLVKLRSLNRRSRAMLSLLPETLVGSMCSAHLLIFYRQILGDVLLRDRTNLQSADLISHPVLATFPLLLEQPDVMDALRSSWSEKESTLKRAEKRDKELLKAEFLLVYHDCVLPLLHSTLLPPFRWAEEETEAARWKAIADFLKQSRENEGSLKALLSPDGVHKPFDLSEQTFDFLGEIRKNSG
Consider B1, for which the binding result in assay [1] and in assay [2] was “binds” in each case.
